Results are given in words; binding and its absence hold for the method and conditions named. Some binding calls cover weakened binding; strength is not graded here.
How the values were obtained:
murine PrP^Sc (mouse) [1] = molecular target: murine PrP^Sc (mouse) (UniProt P04925); test: immunohistochemistry on formalin-fixed spleen sections
murine PrP^Sc (mouse) [2] = molecular target: murine PrP^Sc (mouse) (UniProt P04925); test: immunoprecipitation from scrapie-infected mouse brain (FIG. 1a)
murine PrP^Sc (mouse) [3] = molecular target: murine PrP^Sc (mouse) (UniProt P04925); test: immunohistochemistry on spleen sections (FIG. 2a)
murine PrP^Sc (mouse) [4] = molecular target: murine PrP^Sc (mouse) (UniProt P04925); test: Western blot of proteinase K-treated, NaPTA-precipitated splenic PrP^Sc

Measured: binding

B1: ICSM 18 (antibody, V domains shown)
VH: EVQLQQSGPELVKPGSSVKISCKASRNTFTDYNLDWVKQSHGKTLEWIGNVYPNNGVTGYNQKFRGKATLTVDKSSSTAYMELHSLTSEDSAVYYCALYYYDVSYWGQGTLVTVSA
VL: QIVLTQSPAIMSASPGEKVTMTCSASSSVSYMHWYQQKSGTSPKRWIYDTSKLASGVPARFSGSGSGTSYSLTISSMEAEDAATYFCHQWRSNPYTFGGGTKLEIKR
notes: also called biotinylated ICSM 18
binds: all assays above

Source: US20060280745A1 (MEDICAL RESEARCH COUNCIL, published 2006)
